# Reference: the supplement of paper PMC12889115
# This is one part of the list. Values are raw readings; no control value is given beside them.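 In the initial screen, polymyxin B was used at a concentration that permeabilizes Salmonella's outer membrane but not its inner membrane. Maximum growth was set by DMSO wells with or without polymyxin B. Since plates varied, data were ranked per plate, and compounds giving the lowest OD600 advanced as hits.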
# System: Salmonella enterica serovar Typhimurium SL1344
# Assay: bacterial growth OD600 after 18 h with compound and polymyxin B; higher = more bacterial growth (less inhibition)
# Settings: 50 µM, Mueller-Hinton broth
SMILES,bacterial growth OD600 (polymyxin B 0.75 µg/mL),bacterial growth OD600 (polymyxin B 1 µg/mL)
COc1ccc(OC)c(CNC2CCCc3nc(N(C)C)ncc32)c1 (centres undefined),0.823,–
COC(=O)[C@@H]1CCCN1c1ccc(-c2nc(-c3ccccc3F)no2)cn1,–,0.754
COc1ccc(CCNC2CCN(c3ccc(C(=O)NCCN4CCOCC4)cc3)CC2)c(OC)c1,0.751,–
Cc1cc(C(=O)NC2CC(=O)N(Cc3ccccc3Cl)C2)nc(C)n1 (centres undefined),–,0.851
COc1cc(=O)n2c(c1C(=O)NCCCn1ccnc1)CCN(Cc1ccc(C(C)C)cc1)CC2,0.828,–
O=C(N[C@H]1CCCCNC1=O)c1ccc(N2CCC(NCCCn3ncc4ccccc43)CC2)cc1,0.992,–
CCOC(=O)C1(Cc2ccc(OC)cc2)CCN(S(=O)(=O)c2ccc(C)cc2)CC1,–,0.393
CC(C)N1CCC(N2CC[C@@H](N3CCN(c4ccccn4)CC3)[C@H](O)C2)CC1,–,0.965
COc1ccc(OC)c(CC(=O)N2CCOc3ccc(CN4CCN(CCO)CC4)cc3C2)c1,0.788,–
CCN1CCN(C2(C(=O)N3CCC(C)CC3)Cc3ccccc3C2)CC1,0.745,–
Cc1c(CN(C)Cc2c(C(=O)N3C[C@@H](C)O[C@@H](C)C3)nc3sccn23)[nH]c2ccccc12,–,0.956
Cc1cc2nc(N3CCC(C(=O)NCCC(C)C)CC3)nc(C)c2cc1C,0.728,–
O=C(CCC1(Cc2ccccc2)CCC(=O)N1)NCCc1ccccc1C(F)(F)F (centres undefined),0.852,–
COc1ccc(CCN2CC(NC(=O)Cc3ccccc3)CC2=O)cc1 (centres undefined),–,0.891
Cc1nccn1-c1ccc(NC(=O)C2CCCN2C2Cc3ccccc3C2)cc1 (centres undefined),0.82,–
C/C=C(\C)CN1CCCC(CCC(=O)NCc2ccc(OC)cc2OC)C1 (centres undefined),0.807,–
CC(=O)c1cc(C(=O)NC2CCCN(CCc3ccccc3)C2)cs1 (centres undefined),0.783,–
CCCCC1CN(CCC(=O)NC(C)c2nccs2)Cc2ccccc2O1 (centres undefined),0.794,–
CC(=O)N1CCC(Oc2ccc(Cl)cc2C(=O)N2CCCO2)CC1,–,1.01
Cn1cc(CN2CCN(c3ccc(Cl)cn3)CC2)c(-c2ccc3c(c2)OCCO3)n1,–,0.451
Cc1cc2nc(N3CCC(C(=O)NC45CC6CC(CC(C6)C4)C5)CC3)nc(C)c2cc1C,0.734,–
CC(C)c1ccc(CN2CCCC3(CCN(S(=O)(=O)N(C)C)C3)C2=O)cc1 (centres undefined),–,0.667
C[C@@H]1CN(Cc2nc(-c3ccc(C(F)(F)F)cc3)no2)C[C@H](C)O1,–,0.948
O=C(C#Cc1ccccc1)N1CCC(C2(c3cccnc3)NC(=O)N(CCc3cccs3)C2=O)CC1 (centres undefined),0.014,–
CSc1ccc(CC2(CCC(=O)NC(C)c3nc(C)cs3)CCC(=O)N2)cc1 (centres undefined),0.884,–
COc1ccc(CNC(=O)CCC2CCCN(Cc3ccsc3)C2)c(OC)c1 (centres undefined),–,1.02
CC(=O)NCCNc1ccc(-c2nc(Cc3ccccc3)no2)cn1,–,0.963
COc1ccc(NC(=O)N(C)CC2CCCN(CCc3ccccc3OC)C2)cc1 (centres undefined),–,1.15
C=CCO[C@H]1[C@H](NC(=O)COC)c2ccccc2C12CCN(C(=O)CCc1cccs1)CC2,0.896,–

# Full records, looked up by structure. Order of values: bacterial growth OD600 (polymyxin B 0.75 µg/mL) | bacterial growth OD600 (polymyxin B 1 µg/mL)
# COc1ccc(OC)c(CNC2CCCc3nc(N(C)C)ncc32)c1 (centres undefined) as listed: 0.823 | –
# COc1ccc(CCNC2CCN(c3ccc(C(=O)NCCN4CCOCC4)cc3)CC2)c(OC)c1 as listed: 0.751 | –
